Values joined by “and” are separate entries in the source; they are usually repeats but may differ in a detail not shown here. Identical values can stand only once. Inconclusive results, whose numbers are uncertain, are shown with a selection of clear calls. For some of these results: A potency beside an inconclusive call is a rough fit, not a confirmed value. A structure can be active in one record and inactive in another. Active and inactive are the calls of the source. Rule for the calls: active = hit-call score of the fitted dose curve at least 0.9, where 1 is the maximum; inconclusive = response in the unintended direction; inactive = score below 0.9.
Columns and labels:
[1] = target: Agonist Androgen Response Element (ARE), AR (gene 367) (UniProt P10275); test: OT_AR_ARELUC_AG_1440: Odyssey Thera (OT) 24-hour CHO-K1 Luciferase Assay for Agonist Androgen Response Element (ARE) (AID 2283379)
Outline: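 Agonist mode, 24 h exposure in CHO-K1 ARE-luciferase cells; values reflect luminescence induction over vehicle.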

The chains behind the UniProt entries cited, without tags or fusion partners. Where a name states a change or a piece, a line headed by the entry shows the natural chain unless it says otherwise.
UniProt P10275: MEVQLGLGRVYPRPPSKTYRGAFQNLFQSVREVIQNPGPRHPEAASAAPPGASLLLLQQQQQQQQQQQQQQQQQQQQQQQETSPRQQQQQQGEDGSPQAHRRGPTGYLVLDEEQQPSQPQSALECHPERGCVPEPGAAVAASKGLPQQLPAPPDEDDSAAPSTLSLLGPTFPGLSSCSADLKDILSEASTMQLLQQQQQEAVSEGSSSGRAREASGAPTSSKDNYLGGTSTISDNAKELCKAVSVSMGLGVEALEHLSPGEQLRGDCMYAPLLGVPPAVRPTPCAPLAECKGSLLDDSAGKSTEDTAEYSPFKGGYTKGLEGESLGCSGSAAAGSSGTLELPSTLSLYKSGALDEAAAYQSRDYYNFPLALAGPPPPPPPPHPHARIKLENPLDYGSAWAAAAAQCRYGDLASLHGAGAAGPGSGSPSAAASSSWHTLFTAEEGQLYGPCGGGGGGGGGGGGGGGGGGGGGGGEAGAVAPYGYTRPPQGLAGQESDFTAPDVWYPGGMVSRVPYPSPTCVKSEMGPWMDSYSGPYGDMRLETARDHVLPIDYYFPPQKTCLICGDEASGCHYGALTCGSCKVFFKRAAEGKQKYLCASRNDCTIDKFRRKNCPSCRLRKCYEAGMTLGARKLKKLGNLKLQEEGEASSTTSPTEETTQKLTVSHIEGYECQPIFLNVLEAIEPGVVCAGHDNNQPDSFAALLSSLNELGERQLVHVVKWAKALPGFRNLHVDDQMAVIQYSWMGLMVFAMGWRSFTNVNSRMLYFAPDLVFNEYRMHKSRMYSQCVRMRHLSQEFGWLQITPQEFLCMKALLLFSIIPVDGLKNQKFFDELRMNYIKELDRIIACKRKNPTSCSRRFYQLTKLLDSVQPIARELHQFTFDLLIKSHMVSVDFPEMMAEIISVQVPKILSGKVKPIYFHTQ
UniProt P19793: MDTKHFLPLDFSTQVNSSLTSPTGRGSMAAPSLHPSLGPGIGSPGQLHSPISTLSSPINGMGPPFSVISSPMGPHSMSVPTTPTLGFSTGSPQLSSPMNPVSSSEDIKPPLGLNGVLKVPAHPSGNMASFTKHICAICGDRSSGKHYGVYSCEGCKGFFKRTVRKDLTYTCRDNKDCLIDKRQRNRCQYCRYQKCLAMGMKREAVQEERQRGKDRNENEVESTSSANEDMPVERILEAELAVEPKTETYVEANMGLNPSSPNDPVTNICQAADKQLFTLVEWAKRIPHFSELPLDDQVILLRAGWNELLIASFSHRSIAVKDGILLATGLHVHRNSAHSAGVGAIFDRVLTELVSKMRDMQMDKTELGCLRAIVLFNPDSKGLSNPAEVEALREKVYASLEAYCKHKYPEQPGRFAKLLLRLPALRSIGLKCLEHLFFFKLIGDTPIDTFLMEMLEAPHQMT
UniProt P37231: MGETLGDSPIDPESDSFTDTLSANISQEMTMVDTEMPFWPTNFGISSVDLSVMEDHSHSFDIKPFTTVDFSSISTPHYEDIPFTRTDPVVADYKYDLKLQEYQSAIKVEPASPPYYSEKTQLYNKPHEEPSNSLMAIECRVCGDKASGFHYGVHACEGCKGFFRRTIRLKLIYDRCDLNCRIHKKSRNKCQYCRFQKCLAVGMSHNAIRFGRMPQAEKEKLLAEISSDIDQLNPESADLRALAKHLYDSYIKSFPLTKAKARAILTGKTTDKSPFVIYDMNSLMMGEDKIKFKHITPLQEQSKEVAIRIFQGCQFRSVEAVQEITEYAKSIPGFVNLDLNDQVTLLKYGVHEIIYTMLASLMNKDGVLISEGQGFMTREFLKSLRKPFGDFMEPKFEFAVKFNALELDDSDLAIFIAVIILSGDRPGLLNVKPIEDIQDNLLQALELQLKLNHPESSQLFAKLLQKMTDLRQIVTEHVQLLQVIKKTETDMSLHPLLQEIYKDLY
UniProt P04637, whole entry, looked up: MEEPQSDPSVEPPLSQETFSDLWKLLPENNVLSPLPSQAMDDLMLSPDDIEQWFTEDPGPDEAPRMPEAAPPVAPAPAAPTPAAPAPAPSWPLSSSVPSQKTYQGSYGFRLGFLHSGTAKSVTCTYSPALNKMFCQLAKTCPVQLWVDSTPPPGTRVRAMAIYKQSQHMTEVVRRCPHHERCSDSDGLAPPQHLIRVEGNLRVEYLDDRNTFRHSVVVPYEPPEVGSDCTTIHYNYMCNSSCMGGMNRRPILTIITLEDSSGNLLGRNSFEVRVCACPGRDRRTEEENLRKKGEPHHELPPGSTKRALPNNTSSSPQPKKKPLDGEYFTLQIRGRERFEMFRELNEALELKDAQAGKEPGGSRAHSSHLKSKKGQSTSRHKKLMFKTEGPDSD
UniProt Q96RI1: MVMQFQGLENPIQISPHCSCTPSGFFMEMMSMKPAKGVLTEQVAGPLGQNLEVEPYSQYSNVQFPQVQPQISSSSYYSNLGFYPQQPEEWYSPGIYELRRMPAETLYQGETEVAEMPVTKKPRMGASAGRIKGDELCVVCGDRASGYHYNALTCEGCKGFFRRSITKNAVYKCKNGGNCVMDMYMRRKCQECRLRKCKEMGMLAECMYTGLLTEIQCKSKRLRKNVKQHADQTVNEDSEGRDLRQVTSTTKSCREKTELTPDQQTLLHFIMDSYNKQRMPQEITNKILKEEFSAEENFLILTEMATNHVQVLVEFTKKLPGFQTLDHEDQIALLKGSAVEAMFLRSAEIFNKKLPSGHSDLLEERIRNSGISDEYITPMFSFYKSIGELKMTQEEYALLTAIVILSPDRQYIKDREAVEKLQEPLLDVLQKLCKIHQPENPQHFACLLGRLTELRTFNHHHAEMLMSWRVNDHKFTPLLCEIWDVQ
UniProt Q92731, whole entry, looked up: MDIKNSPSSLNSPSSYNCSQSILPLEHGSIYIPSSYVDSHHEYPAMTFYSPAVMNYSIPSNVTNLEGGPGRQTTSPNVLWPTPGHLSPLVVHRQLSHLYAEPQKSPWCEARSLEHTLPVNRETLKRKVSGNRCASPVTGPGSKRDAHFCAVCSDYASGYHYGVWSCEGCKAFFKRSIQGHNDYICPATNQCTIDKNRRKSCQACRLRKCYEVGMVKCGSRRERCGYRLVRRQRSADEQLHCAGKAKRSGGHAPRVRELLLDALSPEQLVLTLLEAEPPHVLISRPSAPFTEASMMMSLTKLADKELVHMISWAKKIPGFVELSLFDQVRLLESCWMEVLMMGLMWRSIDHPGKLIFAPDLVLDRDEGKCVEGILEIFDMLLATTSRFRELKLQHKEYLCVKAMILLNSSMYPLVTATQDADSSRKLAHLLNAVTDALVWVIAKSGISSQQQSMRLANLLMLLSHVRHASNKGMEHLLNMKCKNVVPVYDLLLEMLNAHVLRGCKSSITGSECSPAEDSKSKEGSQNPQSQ

[2] = target: Retinoic acid receptor RXR-alpha (Homo sapiens) (UniProt P19793); test: OT_NURR1_NURR1RXRa_0480: Odyssey Thera (OT) 8-hour HEK293T Protein Complementation Assay for Nurr1/retinoid X receptor (RXR) (AID 2283385)
Outline: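 HEK293T cells expressing Nurr1 and RXRα fused to reporter fragments were dosed with compound for 8 hours. Complex formation was read as fluorescence intensity and analysed as gain of signal against DMSO as baseline.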

[3] = target: Peroxisome proliferator-activated receptor gamma (Homo sapiens) (UniProt P37231); test: OT_PPARg_PPARgSRC1_0480: Odyssey Thera (OT) 8-hour Protein-Complementation Assay for Peroxisome Proliferator-activated Receptor Gamma / SRC-1 Co-activator (AID 2283387);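 note: nuclear to cytoplasmic split Venus YFP fluorescence ratio reporting PPARg SRC-1 interaction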
Outline: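 HEK293T transiently transfected with PPARg and SRC-1 fused to Venus YFP fragments, compounds 8 h at 37C. Fixed, Draq5-stained cells imaged; nuclear/cytoplasmic 488 nm fluorescence ratio over at least 350 cells per image; gain fitted versus DMSO.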

[4] = TOX21_p53_BLA_p2_viability: Viability Assessment in the Tox21 HCT-116 p53 Agonism Beta-lactamase Assay, Phase 2 (AID 2283591);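 note: compound exposure lasted 16 h at 37 °C; actives lower the ATP signal meaning cytotoxicity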
Outline: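 Cytotoxicity readout: CellTiter-Glo ATP luminescence, 30 min at room temperature, after the beta-lactamase read. Cells were HCT116 exposed 16 h at 37C to compounds pin-transferred at 217-fold dilution from DMSO stocks.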

[5] = TOX21_p53_BLA_p3_viability: Viability Assessment in the Tox21 HCT-116 p53 Agonism Beta-lactamase Assay, Phase 3 (AID 2283593);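 note: cells exposed to compound for 16 h before reading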
Outline: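 Cellular ATP was quantified by CellTiter-Glo luminescence, read after 30 min at room temperature. Beforehand, HCT116 cells (4000/well) received compound 5 h post-seeding, 217-fold diluted from DMSO, then incubated 16 h at 37C.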

[6] = target: Cellular tumor antigen p53 (Homo sapiens) (UniProt P04637); test: TOX21_p53_BLA_p3_ratio: Tox21 HCT-116 p53 Agonism Beta-lactamase Assay, Ratio, Phase 3 (AID 2283596)
Outline: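 HCT116 p53-bla cells (4000/well) given compound in DMSO (217-fold dilution) after 5 h, incubated 16 h at 37C. CCF4-AM substrate 2 h at room temperature; 460/530 nm emission ratio, gain fitted against DMSO.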

[7] = TOX21_p53_BLA_p5_viability: Viability Assessment in the Tox21 HCT-116 p53 Agonism Beta-lactamase Assay, Phase 5 (AID 2283600)
Outline: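 Cells were plated at 4000/well, rested 5 h at 37C, then given compounds in DMSO (217-fold dilution) for 16 h at 37C, 5% CO2. Following the CCF4-AM beta-lactamase read, CellTiter-Glo was added and luminescence was read after 30 min at room temperature.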

[8] = target: Cellular tumor antigen p53 (Homo sapiens) (UniProt P04637); test: TOX21_p53_BLA_p4_ratio: Tox21 HCT-116 p53 Agonism Beta-lactamase Assay, Ratio, Phase 4 (AID 2283601)
Outline: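 Signal is the blue/green (460nm/530nm) ratio of cleaved versus uncleaved CCF4-AM substrate, read after 2 h substrate loading. Cells were HCT116 carrying the p53-responsive beta-lactamase reporter, dosed 16 h at 37C, 5% CO2; CellTiter-Glo measured in parallel.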

[9] = target: Bile acid receptor (Homo sapiens) (UniProt Q96RI1); test: OT_FXR_FXRSRC1_0480: Odyssey Thera (OT) 8-hour HEK293T Protein-Complementation Assay for Farnesoid X receptor/SRC-1 Co-activator (AID 2283383)
Outline: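 HEK293T cells expressing FXR and SRC-1 fused to reporter fragments were dosed with compound for 8 h; fluorescence from the reconstituted reporter marked co-activator recruitment. Gain of signal was fitted against the DMSO baseline.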

[10] = target: Bile acid receptor (Homo sapiens) (UniProt Q96RI1); test: OT_FXR_FXRSRC1_1440: Odyssey Thera (OT) 24-hour HEK293T Protein-Complementation Assay for Farnesoid X receptor/SRC-1 Co-activator (AID 2283384)
Outline: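 HEK293T cells were dosed with compound and read 24 h later by fluorescence intensity from protein-fragment complementation reporting FXR/SRC-1 co-activator interaction. Gain of signal was fitted relative to DMSO negative control as baseline.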

[11] = target: Retinoic acid receptor RXR-alpha (Homo sapiens) (UniProt P19793); test: OT_NURR1_NURR1RXRa_1440: Odyssey Thera (OT) 24-hour HEK293T Protein Complementation Assay for Nurr1/retinoid X receptor (RXR) (AID 2283386)
Outline: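 HEK293T cells were dosed with compound and read 24 h later by fluorescence intensity in a protein-fragment complementation format, where Nurr1–RXRα interaction reconstitutes a split reporter. Activity was fitted as gain of signal relative to DMSO baseline.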

[12] = ATG_XTT_Cytotoxicity: Cytotoxicity Assessment in the Attagene TRANS-FACTORIAL HepG2 Assay (AID 2283584);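 for AC50: cells exposed to compound for 24 h before reading; active means loss of viability signal versus DMSO baseline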
Outline: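 HepG2 human liver cells, transiently transfected with multiple GAL4-UAS reporter units, were dosed and read at 24 h by XTT as cell number. Loss of signal was fitted relative to DMSO negative control baseline.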

[13] = target: Cellular tumor antigen p53 (Homo sapiens) (UniProt P04637); test: TOX21_p53_BLA_p5_ratio: Tox21 HCT-116 p53 Agonism Beta-lactamase Assay, Ratio, Phase 5 (AID 2283599)
Outline: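 Beta-lactamase reporter ratio (blue 460 nm over green 530 nm, 405 nm excitation) after 2 h CCF4-AM loading, in HCT-116 cells exposed 16 h at 37 C to compounds pinned at 217-fold dilution. Increases relative to DMSO baseline scored.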

[14] = target: Cellular tumor antigen p53 (Homo sapiens) (UniProt P04637); test: TOX21_p53_BLA_p2_ratio: Tox21 HCT-116 p53 Agonism Beta-lactamase Assay, Ratio, Phase 2 (AID 2283592)
Outline: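 HCT116 cells carrying a p53-responsive beta-lactamase reporter were plated, incubated 5 h at 37C, then dosed with compounds in DMSO (217-fold dilution) for 16 h. CCF4-AM substrate was added for 2 h at room temperature; the 460/530 nm emission ratio gave gain-of-signal activity relative to DMSO.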

[15] = TOX21_p53_BLA_p4_viability: Viability Assessment in the Tox21 HCT-116 p53 Agonism Beta-lactamase Assay, Phase 4 (AID 2283597);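 note: hits lower the luminescence signal meaning cytotoxicity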
Outline: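 HCT116 p53-bla cells (4000/well) rested 5 h at 37C, then received compounds in DMSO (217-fold dilution) for 16 h at 37C, 5% CO2. CellTiter-Glo was added after the CCF4-AM read, and luminescence was read after 30 min at room temperature.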

[16] = target: Estrogen receptor beta (Homo sapiens) (UniProt Q92731); test: OT_ER_ERbERb_1440: Odyssey Thera (OT) 24-hour HEK293T Protein-Complementation Assay for Estrogen Receptor-beta/-beta Homodimer (AID 2283380);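 note: fluorescence gain from ER beta LBD homodimer complementation read by laser scanning cytometry; scored as signal increase over DMSO baseline for both agonists and antagonists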
Outline: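 Fluorescence increase, nuclear for agonists or whole-cell for antagonists, relative to DMSO vehicle, quantified by laser scanning cytometer after fixation and Draq5 staining. Readout from 24 h treatment of HEK293T cells carrying complementation-paired ER beta LBD (aa 310-547).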

With `CC(C)c1cccc(C(C)C)c1O` the AC50 [1] was inconclusive: 50 µM, the outcome [2] was “inactive” and the AC50 [3] was inconclusive: 50 µM. For the same compound, the AC50 [4] was inconclusive: 46.1 µM and inconclusive: 45 nM, the outcome [4] was “inactive” and the AC50 [5] was inconclusive: 46 µM. For the same compound, the outcome [6] was “inactive”, the AC50 [7] was inconclusive: 46 µM and the AC50 [8] was inconclusive: 46.1 µM and inconclusive: 46 µM and inconclusive: 23 µM.

For `CCOc1ccc(N)cc1`, the AC50 [9] was inconclusive: 50 µM, the AC50 [10] was active: 46.8 µM and the outcome [2] was “inactive”. The outcome [11] was “inactive”, the outcome [12] was “inactive” and the AC50 [4] was inconclusive: 2.83 µM. The AC50 [6] was inconclusive: 46.2 µM, the AC50 [13] was inconclusive: 46.2 µM and the AC50 [7] was inconclusive: 46.2 µM.

For `CNC(=O)O/N=C/C(C)(C)S(C)(=O)=O`, the AC50 [1] was active: 0.623 µM, the AC50 [2] was inconclusive: 12.1 µM and the outcome [11] was “inactive”. The outcome [12] was “inactive”, the AC50 [4] was inconclusive: 46 µM and the AC50 [14] was inconclusive: 46.2 µM. For the same compound, the AC50 [5] was inconclusive: 18.3 nM and inconclusive: 46.2 µM, the AC50 [6] was inconclusive: 46 µM and inconclusive: 46.2 µM and the AC50 [15] was inconclusive: 82.6 µM. The AC50 [7] was inconclusive: 1.5 µM and the outcome [7] was “inactive”.

In the case of `OC(c1ccc(Cl)cc1)(c1ccc(Cl)cc1)C(Cl)(Cl)Cl`, the AC50 [9] is reported as inconclusive: 82.7 µM, the AC50 [10] is reported as inconclusive: 88.7 µM and the AC50 [2] is reported as inconclusive: 50 µM and inconclusive: 85.2 µM. The AC50 [11] was inconclusive: 91.8 µM and inconclusive: 50.9 µM, the AC50 [3] was inconclusive: 88 µM and the AC50 [4] was active: 77.9 µM. The outcome [14] was “inactive”, the AC50 [5] was active: 38.8 µM and the AC50 [15] was active: 86.7 µM. For the same compound, the AC50 [13] was active: 89.8 µM and the AC50 [7] was active: 71 µM.

With `CCC(C)(NC(=O)c1cc(Cl)c(C)c(Cl)c1)C(=O)CCl` (stereo not given) the AC50 [9] was inconclusive: 27.9 µM, the AC50 [10] was inconclusive: 24.6 µM and the AC50 [2] was inconclusive: 12.2 µM. The AC50 [11] was inconclusive: 50.5 µM and inconclusive: 10 µM, the outcome [3] was “inactive” and the AC50 [4] was active: 71.9 µM. The AC50 [14] was active: 30.2 µM, the AC50 [6] was active: 29.6 µM and the AC50 [15] was active: 60.3 µM. The AC50 [13] was active: 72.2 µM, the AC50 [7] was active: 74.7 µM and the AC50 [8] was active: 66.8 µM.

For `CCCCN(CC)C(=O)SCCC`, the outcome [1] was “inactive”, the outcome [9] was “inactive” and the AC50 [2] was inconclusive: 50 µM. For the same compound, the AC50 [11] was inconclusive: 50 µM, the AC50 [4] was inconclusive: 12.2 µM and the AC50 [14] was inconclusive: 46.5 µM. The AC50 [15] was inconclusive: 46.1 µM, the outcome [15] was “inactive” and the AC50 [8] was inconclusive: 46.1 µM.

In the case of `O=[N+]([O-])c1c(Cl)c(Cl)c(Cl)c(Cl)c1Cl`, the AC50 [1] is reported as inconclusive: 50 µM, the AC50 [11] is reported as inconclusive: 50 µM and the AC50 [4] is reported as inconclusive: 45.9 µM. For the same compound, the AC50 [5] was inconclusive: 45.9 µM, the AC50 [6] was inconclusive: 46.1 µM and the AC50 [15] was inconclusive: 45.9 µM. The AC50 [7] was inconclusive: 45.9 µM and the outcome [8] was “inactive”.

With `O=[N+]([O-])c1cc(C(F)(F)F)c(Cl)c([N+](=O)[O-])c1Nc1ncc(C(F)(F)F)cc1Cl` the AC50 [16] was inconclusive: 50 µM, the AC50 [9] was inconclusive: 23.4 µM and the AC50 [10] was inconclusive: 23.8 µM. The AC50 [2] was inconclusive: 50 µM and inconclusive: 26.4 µM and the AC50 [12] was active: 38.8 µM.

For `Oc1cccc2cccnc12`, the AC50 [9] was inconclusive: 47.8 µM, the outcome [9] was “inactive” and the AC50 [10] was inconclusive: 50 µM and inconclusive: 47.8 µM. The AC50 [2] was inconclusive: 12.4 µM and inconclusive: 23.3 µM and inconclusive: 47.8 µM, the AC50 [11] was inconclusive: 17.2 µM and inconclusive: 14.6 µM and inconclusive: 15.8 µM and the AC50 [4] was inconclusive: 0.00456 µM. The AC50 [5] was inconclusive: 23 µM, the AC50 [15] was inconclusive: 46.3 µM and inconclusive: 4.57 µM and the AC50 [7] was inconclusive: 46.3 µM and inconclusive: 23 µM.

For `CC12CC1(C)C(=O)N(c1cc(Cl)cc(Cl)c1)C2=O` (stereo not given), the AC50 [1] was inconclusive: 50 µM, the AC50 [2] was inconclusive: 23.8 nM and inconclusive: 50 µM and the AC50 [11] was inconclusive: 50 µM. The outcome [11] was “inactive”, the AC50 [4] was inconclusive: 0.00102 µM and the AC50 [7] was inconclusive: 0.0174 µM.

For `O=[N+]([O-])c1ccc(O)c([N+](=O)[O-])c1`, the outcome [1] was “inactive”, the AC50 [2] was inconclusive: 18.4 µM and the AC50 [3] was inconclusive: 50 µM. The AC50 [4] was inconclusive: 46.2 µM, the outcome [4] was “inactive” and the AC50 [6] was active: 78.5 µM. For the same compound, the outcome [6] was “inactive”, the AC50 [15] was inconclusive: 46.1 µM and the outcome [15] was “inactive”. The AC50 [13] was active: 79.2 µM and the outcome [8] was “inactive”.

From PubChem BioAssay (EPA / NIEHS)
